In all, about 52,000 sequences went through this assay and about 210 (0.4%) were called active.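 The calls were made as follows: active = gene whose silencing raises cell survival under the drug, median off-target-corrected z-score across its silencing RNAs 2 or more; inactive = the rest.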 The list shows a part of the results.

A short description of this test: Resistance to Poly (ADP-Ribose) Polymerase inhibitor: Gene Identification via Genome-wide siRNA Screen. To be noted: mouse BRCA2 R2336H ES cells, olaparib, CellTiter-Glo viability; hits give high values. The method, boiled down:
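Genome-wide siRNA screen (3 siRNAs/gene, 20 nM) in mouse ES cells carrying hypomorphic BRCA2 R2336H; olaparib 500 nM added 48 h post-transfection, CellTiter-Glo viability 72 h later. Normalized to plate-median negative control; MAD z-scores, gene median, seed-adjusted.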
A general note: Cellular ATP, detected with luciferase, serves as a proxy for viable cell number.
As to GGUCAUGUAUUUUCUUCUATT against Olfr576, the z-score is inactive: 0.203.

Take CCAGCCAACGAGAACUUUUTT against BC059842: the z-score is inactive: -1.26.

Consider GGCAUUUAAUCACUGGCUGTT against Ggps1, for which the z-score was inactive: -2.32. With “GCAAAACCGGCGUAUGAGATT against 1110031B06Rik”, the z-score was inactive: 1.1. The same measure for CGACCACACAGGGAUAUACTT against BC010462: inactive: 0.742. Under GGGUACAAAGGCUGUAGUUTT against Sec61a1 stands inactive: -2.05; under GGCAGAAGAGUGGUACUUUTT against Fyn, inactive: -1.1; under GCCUUGACGUGCUUCAGAUTT against Golga7, inactive: -0.03. The same measure for GAACGUGAAGGCCAAGAUCTT against Ubb: inactive: -0.324. GACAACAACUCUUGGCAGATT against Speer4d: the z-score was inactive: 2.46. The same measure for UGGUGAAUACCAGUCUAAUTT against Tnfrsf23: inactive: -0.597; for GGAAAUUCAGCAUGGAGCCTT against Vgll4: inactive: -0.472. The same measure for GCUUGACUUUGAAAGUCCATT against LOC432615: inactive: -0.487. On to “GCUCUUUGACCUUGGCAAATT against 1810034K20Rik”, for which the z-score was inactive: -0.315. For the sequence “GGUGCAAGGUUCUUGUGUUTT against 6030422M02Rik”, the z-score is inactive: -0.453. Consider CGUGUGAAGCAGUUAUGAUTT against Pbx3, for which the z-score is inactive: 3.25. The same measure for GGCUCAUUCACUAAUCCGATT against Sip1: inactive: 0.0801; for GCACAUCAUUUUGAGUAUUTT against Spg21: inactive: 0.612; for “GGAAUGGACCUCAAAAUUGTT against 4930579A11Rik”: inactive: 0.6. In the case of GGAGAGUGCUUCACAGACATT against Crlf3, the z-score is inactive: 0.228.

On to GGCCUCUACUUCUUUGAGUTT against Cklfsf4, for which the z-score is inactive: 1.02. The same measure for GCCAGUCCUUCAAGUGUAUTT against Jak2: inactive: 1.2; for CCCAUGUACCACUUUGUCATT against Olfr430: inactive: 1.75. For the sequence GGUAAAAACCCAGAGAUGATT against Rem2, the z-score was inactive: 0.794. As to GGGUAUUGACUACACCAGCTT against Tnfrsf10b, the z-score is inactive: 0.362. For GGUUUGAGUGGAAAAUUCATT against Csnd, the z-score is inactive: 0.147. On to GGACAAGGAGUAUUAUGUGTT against Nrxn3, for which the z-score is inactive: 2.31. Under CCACAAGCAGUGCUCUUUCTT against Cyp3a13 stands inactive: -0.683; under GGGUAGGUCCAAAGCCUUCTT against Olfr902, inactive: 0.482. In the case of GGACAGAGCCUAGAAAACUTT against Mpdu1, the z-score is inactive: -1.1.

Turning to GGCAAUUAAAGAAGCCCUCTT against Cyp2c40, the z-score is inactive: -0.52. The same measure for GGAAAACCAAGACCACAAATT against Nsbp1: inactive: 0.202; for GCGGAUGCUCAGUGAUGGGTT against Tcp10a: inactive: 1.17. The same measure for CGUACAUGUACCAAAAUAUTT against Angpt1: inactive: 0.668. On to GCAGUCUCCAAUUGAGAUUTT against Car13, for which the z-score was inactive: 1.55. The same measure for CGAAGGUAGCCAGUCACAATT against Ppib: inactive: 0.414; for GGUGAAUGGCAUGACCAUATT against Asb9: inactive: 1.53; for GGGAUUUCAAGGAAAUAAGTT against Gm466: inactive: 0.898. Under CGAGAAAACACGGACCUCATT against Slc16a6 stands inactive: 0.644. Under GGCUGGUAAUUCACUUAAUTT against Kcnk2 stands inactive: -0.0444. As for GCUAAGGACUCAGCAAAACTT against D5Ertd33e, the z-score is inactive: 1.57. The same measure for CGCGUUGACAUACAUAAAATT against D5Ertd33e: inactive: -0.622. As for GGUAUGAGUGAAGAAAAGATT against Ifi205, the z-score was inactive: -0.37. As for GCUCAAAAUAACAAGAAGGTT against Ercc5, the z-score was inactive: 1.51. The same measure for GCUGAAAGCAUCCAAUGGGTT against Epb4.1: inactive: 0.343. The same measure for GCAAGGGCUUUAACUAAGUTT against Wnt2: inactive: -0.000384. In the case of GCUUGUACCUGUGGAUCGATT against Wif1, the z-score is inactive: 0.365. The same measure for GGCUCUUAAUUGACUUUGATT against Pctk1: inactive: -0.614; for GCUCAUACUCCGAAACCUGTT against Etv1: inactive: 2.05; for “CCUAUAAAGACUUAACGAATT against 9030224M15Rik”: inactive: 0.794.

Regarding CCAUACCAUUAGUGUCGGCTT against Thea, the z-score is inactive: -0.803. For GCUUUAAGGCUUACACAGATT against Klrk1, the z-score is inactive: 0.416. Under “GACCUUCGACACCGACAAATT against 2900027G03Rik” stands inactive: 0.645; under CCCACUUGUCUACAGCCUATT against Olfr1505, inactive: -1.96; under GGAGGAAGAAGAUGAGAUATT against Il4ra, inactive: 1.7.

As to GGACAUCUCCUCAAUCAUCTT against Gdf10, the z-score is inactive: 0.845. GGAUGAAACUCCUACCACATT against Zfp179: the z-score is inactive: -2.95. For the sequence GGAAAACCCUGGUACUGAUTT against Mpp2, the z-score is inactive: -0.543.

Turning to GGUUGUCUGCUAAACCUGCTT against Hmgn2, the z-score is inactive: 0.475.

Take “GGAUGAUAUCUCAGUCAUGTT against 2810007J24Rik”: the z-score is inactive: 0.988. The same measure for CGAAGAUGCCAGUUAUGUUTT against MGC58365: inactive: -1.35; for GGAAUUUGGAAUGGCUACUTT against BC034076: inactive: -1.96. Under CGUGCGAGACAGCUUUUAATT against Gtf2h3 stands inactive: -1.17; under GGAGACUUAAGAUGUUACATT against AW049604, inactive: -0.452. The same measure for GGUGGGAAAUUCGUAGACUTT against Pdcd1: inactive: -0.658. On to GCGUAAGGAAUUGUCUAACTT against Hoxd12, for which the z-score is inactive: 0.5. Under “GGAGGUAAAAAGCAAGACATT against 4930548H24Rik” stands inactive: 0.722; under CCAGAUAACAUUAGAACUATT against Nsep1, inactive: -0.478.

On to CCAACCAGACUUAUUUAAUTT against Zfp37, for which the z-score was inactive: 1.63. For CCUAGUUUUGAACAUCAGATT against Il13ra1, the z-score is inactive: 0.675. The same measure for CCUCAAAGUGGAUCAACUGTT against D17H6S53E: inactive: 1.36; for “CCUCUCCCAUGUAGCUUACTT against 1700123D08Rik”: inactive: 0.888; for GGCAGUCAUUACCUAUCAGTT against Atp7b: inactive: 0.423. Turning to CGAAAAUACGUCAAAGCUCTT against Abca8b, the z-score was inactive: -0.275. Regarding GUCAUUGCACCAAAAAUGUTT against Olfr1052, the z-score was inactive: -0.308. Under “GCCAAAUCUACUGUUAUUUTT against 2310044D20Rik” stands inactive: 0.408; under GCCAGUUUGCUGAUGGUUGTT against Tmem14c, inactive: 0.0872. Under GGAGAUUUACUGCUCGCUGTT against BB220380 stands inactive: -0.0155; under GGAAGUGCUGUUCUUGGGCTT against Smug1, inactive: 1.86; under GGUUUUCACGUGCUGCUGATT against Chd1l, inactive: -2.51. For GGUAUUCAGUAAUACAGUUTT against Igf2bp3, the z-score was inactive: -1.01.

On to GCUGGUCAUUACUAAUACATT against Rsbn, for which the z-score was inactive: -1.02. Under GGCUCUGGUCCAAGAAAUGTT against C4 stands inactive: -1.41.

Turning to GGAGUUGAGGGUCUCAUUCTT against Nphp1, the z-score was inactive: 2.19.

As to GGAAUGAACAUCAUUGUUUTT against Sms, the z-score was inactive: 1.16. As for GGCAGGACGAACAUGGCUATT against Hspb1, the z-score is inactive: -0.172. The same measure for GCACAAACUACUGAACUUGTT against Tcfap2e: inactive: 1.69; for GGAGUACAUGGUGAUGUUGTT against Tessp3: inactive: -0.703. Under “GGGCUCACUCUGUCUCUACTT against 2810432D09Rik” stands inactive: 1.34. Under GGAAGAAAAACUUGUCUCCTT against Copa stands inactive: -2.72; under CGGAGCUGUUGGUAAAACCTT against Rac1, inactive: -0.207. CCACGUUGUCAUAAUAAACTT against Mrpl13: the z-score was inactive: 1.23. The same measure for GGCAAUGCUAGGUGAGGAATT against Olfr157: inactive: -1.5. With GGUCUCUGUUGCUUUGACUTT against Tgoln1, the z-score is inactive: 0.0732. Regarding CCGUGUCUUCCAUAUUGGUTT against Trip6, the z-score was inactive: -0.166. The same measure for GGCUCCUUUCGAAAGUAAATT against BC051142: inactive: 0.471.

Take CCUUUGAGCCAGUUAUUUATT against Slc25a27: the z-score is inactive: 1.7. The same measure for “GCCACAAACCAAUGGUUUGTT against B230219D22Rik”: inactive: 1.27; for CCUUUAGGUACCACGAGUGTT against Gyltl1b: inactive: -0.781.

On to GCUCCGAAGAGCUAAUACUTT against Tmem25, for which the z-score is inactive: 0.0528. As for GGUAUACAUGCUUCUCUCUTT against Olfr610, the z-score is inactive: -0.59. For GCAAUAUACACCAUAUUGGTT against Panx3, the z-score was inactive: 0.604.

For the sequence CGAAACUAGGAUUGAGGAGTT against Ece1, the z-score is inactive: 2.34. On to GGAAAAAAAGGUGAAAACCTT against Ttc16, for which the z-score was inactive: -0.609. Under “CGAUUCUGCUACCUAUAGATT against 2810408A11Rik” stands inactive: 1.09.

The values above are taken from PubChem BioAssay AID1347423 (Functional Genomics Laboratory (NCATS/FGL), 2020).
